Assay [1] has as its target T1, AtSEOb (Arabidopsis sieve element occlusion protein b) (Arabidopsis) (UniProt Q9SS87).
T1 sequence: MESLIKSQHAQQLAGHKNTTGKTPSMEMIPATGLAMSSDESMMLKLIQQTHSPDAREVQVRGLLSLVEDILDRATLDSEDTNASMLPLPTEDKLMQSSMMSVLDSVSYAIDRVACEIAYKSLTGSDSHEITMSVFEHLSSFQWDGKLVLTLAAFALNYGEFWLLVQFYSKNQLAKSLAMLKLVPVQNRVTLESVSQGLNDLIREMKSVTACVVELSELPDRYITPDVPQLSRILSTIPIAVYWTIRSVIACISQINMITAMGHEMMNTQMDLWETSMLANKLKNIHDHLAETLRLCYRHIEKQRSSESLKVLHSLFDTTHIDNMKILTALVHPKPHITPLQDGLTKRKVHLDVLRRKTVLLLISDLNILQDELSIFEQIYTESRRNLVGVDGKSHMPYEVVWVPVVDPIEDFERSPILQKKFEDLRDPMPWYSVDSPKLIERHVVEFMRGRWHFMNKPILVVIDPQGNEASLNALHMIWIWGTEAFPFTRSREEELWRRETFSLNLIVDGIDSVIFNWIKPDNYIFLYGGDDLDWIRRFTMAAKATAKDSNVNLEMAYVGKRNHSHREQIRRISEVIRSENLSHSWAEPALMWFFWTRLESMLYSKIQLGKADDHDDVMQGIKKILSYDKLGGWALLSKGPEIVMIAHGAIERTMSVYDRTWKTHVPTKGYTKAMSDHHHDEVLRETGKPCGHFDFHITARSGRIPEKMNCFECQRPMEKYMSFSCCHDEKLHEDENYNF
Description: split reporter; BiFC with split mRFP1-Q66T fusions co-expressed in N. benthamiana epidermal cells by agroinfiltration (with p19 silencing repressor); leaf discs analysed by CLSM after 3 days.

Assay [2] concerns the target AtSEOa (Arabidopsis sieve element occlusion protein a) (Arabidopsis) (UniProt Q93XX2). The assay is described as above.

For two molecules, binding results are on record in publication PMC3700381.

Results are given in words; binding and its absence hold for the method and conditions named. Binding seen in cells or lysates may run through a third protein. Some entries that bind do so weakly or less than the wild type.

B1: AtSEOb (Arabidopsis sieve element occlusion protein b) (protein, UniProt Q9SS87 1-740)
chain: MESLIKSQHAQQLAGHKNTTGKTPSMEMIPATGLAMSSDESMMLKLIQQTHSPDAREVQVRGLLSLVEDILDRATLDSEDTNASMLPLPTEDKLMQSSMMSVLDSVSYAIDRVACEIAYKSLTGSDSHEITMSVFEHLSSFQWDGKLVLTLAAFALNYGEFWLLVQFYSKNQLAKSLAMLKLVPVQNRVTLESVSQGLNDLIREMKSVTACVVELSELPDRYITPDVPQLSRILSTIPIAVYWTIRSVIACISQINMITAMGHEMMNTQMDLWETSMLANKLKNIHDHLAETLRLCYRHIEKQRSSESLKVLHSLFDTTHIDNMKILTALVHPKPHITPLQDGLTKRKVHLDVLRRKTVLLLISDLNILQDELSIFEQIYTESRRNLVGVDGKSHMPYEVVWVPVVDPIEDFERSPILQKKFEDLRDPMPWYSVDSPKLIERHVVEFMRGRWHFMNKPILVVIDPQGNEASLNALHMIWIWGTEAFPFTRSREEELWRRETFSLNLIVDGIDSVIFNWIKPDNYIFLYGGDDLDWIRRFTMAAKATAKDSNVNLEMAYVGKRNHSHREQIRRISEVIRSENLSHSWAEPALMWFFWTRLESMLYSKIQLGKADDHDDVMQGIKKILSYDKLGGWALLSKGPEIVMIAHGAIERTMSVYDRTWKTHVPTKGYTKAMSDHHHDEVLRETGKPCGHFDFHITARSGRIPEKMNCFECQRPMEKYMSFSCCHDEKLHEDENYNF
For the molecule B1, the binding entry in assay [1] is recorded as “binds”.

B2: AtSEOa (Arabidopsis sieve element occlusion protein a) (protein, UniProt Q93XX2 1-822)
chain: MAQRFQLNSQTLPTADPLKRVSLIPRSAEQRLADNAGERRPLAPRSHEDNPFGGHTDDHHVAAPADHNKVMDHNSENLGSIVPKTAHYPHPSEEILDANIRHSMVPKSLGPNSLGGRFGPGKKQAFHRNGRPMFSLSDDRVMADRVLKTHSPDMIFFDVTSLLSVVNDIFKSHVPSIDSSAPKPSLVFKDYADHTSFETFADLIDQISCEIDCKCLHGGESHGMMTSGLHLDSRNTTTFSVLSLVSKYRWDAKLVLVLSALAVKYGVFLLLAETHATNQLTKSLALIKQLPSIFSRQNALHQRLDKTRILMQDMVDLTTTIIDIYQLPPNHITAAFTDHIPTAVYWIVRCVLICVSHISGASGFKQDQIMSFMEVSEIHENSERLRKINAYLLEQFKKSKMTIEEGIIEEEYQELIQTFTTIIHVDVVPPLLRLLRPIDFLYHGAGVSKRRVGINVLTQKHVLLLISDLENIEKELYILESLYTEAWQQSFEILWVPVQDFWTEADDAKFEALHMNMRWYVLGEPRKLRRAAIRFVREWWGFKNRPILVALDPKGQVMSTNAFPMVWIWQPFAHPFTTARERDLWSEQEWNLEFLIDGTDPHSLNQLVDGKYICLYGGEDMQWIKNFTSLWRNVAKAANIQLEMVYVGKRNPKNGIQPIINTIREENLSHTLPDLFQIWFFWTRVESMWESKQRMLKAHGIKGREGFKEEEKDLVLQEVVAMLGYGGEGDGWGLVSKASDMMVRAKGNLFSRGLAEFNEWEVNIPTKGFLTALNDHLLMRLPPHHCTRFMLPETAGIIPNEVECTECRRTMEKYYLYQCCLE
Take B2: the binding result in assay [1] and in assay [2] was “binds” in each case.
